Test results published in PubChem BioAssay AID330 (DTP/NCI, 2004).
The list does not hold the whole screen: it gathers tests that were run many times, whatever their T/C, doses with no T/C, and many T/C values between a quarter and a half above the control. Further doses and runs are listed elsewhere. T/C gives the treated animals as a percentage of the vehicle group. Some doses have a count of surviving animals in place of a T/C: the source files T/C as zero there, which appears to mark a toxic dose or a test without result, not a measured value. Some survivor counts are full or nearly so, which does not show that the dose was tolerated: the source hardly ever lists a survival T/C far under the control, and the zero likely stands for such cases as well. Counts of survivors are from the toxicity check (mostly the fifth day) where no day follows; animals may have died later. Schedules are NCI's codes, taken here to give the interval after Q, in days (D) or hours (H), and the number of doses after X. Brackets with × count equal records among those shown. Where survival is the endpoint, this PubChem deposit counts one and a half times the control or more as active, and values a quarter to a half above the control carry no call in these data; other NCI protocols may use other cut-offs. Some doses were run more than once; their values stand side by side, smallest first.

Tested on: P388 leukemia ip, CD2F1 mice, survival T/C
Test: NCI In Vivo Anticancer Drug Screen. Data for tumor model P388 Leukemia (intraperitoneal) in CD2F1 (CDF1) mice
Settings: T/C endpoint: median survival time, higher T/C = longer survival
[1] = dose: 120.0 mg/kg/injection, schedule: Q01DX005 (ip), vehicle: saline with Tween-80
[2] = dose: 100.0 mg/kg/injection, schedule: Q01DX005 (ip), vehicle: saline with Tween-80
[3] = dose: 200.0 mg/kg/injection, schedule: Q01DX005 (ip), vehicle: saline with Tween-80
[4] = dose: 60.0 mg/kg/injection, schedule: Q01DX005 (ip), vehicle: Klucel (hydroxypropylcellulose) (HPC)

Structure (SMILES): [CH3][Sn]([CH3])([CH3])[N](C#N)C(=Nc1ccccc1)NC#N
- survivor count (dose: 6.25 mg/kg/injection, schedule: Q01DX005 (ip), vehicle: Klucel (hydroxypropylcellulose) (HPC)): 0 of 6
- survivor count (dose: 12.5 mg/kg/injection, schedule: Q01DX005 (ip), vehicle: Klucel (hydroxypropylcellulose) (HPC)): 0 of 6
- survivor count (dose: 25.0 mg/kg/injection, schedule: Q01DX005 (ip), vehicle: Klucel (hydroxypropylcellulose) (HPC)): 0 of 6
- survivor count (dose: 100.0 mg/kg/injection, schedule: Q04DX002 (ip), vehicle: Klucel (hydroxypropylcellulose) (HPC)): 0 of 6
- survivor count (dose: 200.0 mg/kg/injection, schedule: Q04DX002 (ip), vehicle: Klucel (hydroxypropylcellulose) (HPC)): 0 of 6
- survivor count (dose: 400.0 mg/kg/injection, schedule: Q04DX002 (ip), vehicle: Klucel (hydroxypropylcellulose) (HPC)): 0 of 6

Structure (SMILES): CCOc1cc2c(cc1Cc1c(OC)cc(OC)cc1OC)OCO2
- survivor count [1]: 6 of 6

Structure (SMILES): CCNC(=O)N(CC(N)=O)c1ncc([N+](=O)[O-])s1
- T/C (dose: 25.0 mg/kg/injection, schedule: Q01DX001 (ip), vehicle: saline): 132 % of control

Structure (SMILES): CCCCC(=S)SSC(C)(C)C
- survivor count [2]: 4 of 6
- survivor count [3]: 0 of 6

Structure (SMILES): Clc1ccc(N=C(SSC(Cl)(Cl)Cl)SSC(Cl)(Cl)Cl)cc1
- T/C (dose: 50.0 mg/kg/injection, schedule: Q01DX009 (ip), vehicle: saline with Tween-80): 133 % of control
- T/C (dose: 100.0 mg/kg/injection, schedule: Q01DX009 (ip), vehicle: saline with Tween-80): 145 % of control

Structure (SMILES): COc1ccc2[nH]c3c(C)c4cc[n+](CCCCCCCC[n+]5ccc6c(C)c7[nH]c8ccc(OC)cc8c7c(C)c6c5)cc4c(C)c3c2c1
- T/C (dose: 1.56 mg/kg/injection, schedule: Q04DX003 (ip), vehicle: other): 126 % of control
- T/C (dose: 3.13 mg/kg/injection, schedule: Q04DX003 (ip), vehicle: other): 126 % of control
- T/C (dose: 6.25 mg/kg/injection, schedule: Q04DX003 (ip), vehicle: other): 126 % of control
- T/C (dose: 12.5 mg/kg/injection, schedule: Q04DX003 (ip), vehicle: other): 132 % of control

Structure (SMILES): c1ccc2c3c(c4c(c2c1)CN(C1CCCCC1)CO4)OCN(C1CCCCC1)C3
- T/C (dose: 25.0 mg/kg/injection, schedule: Q01DX005 (ip), vehicle: saline with Tween-80): 131 and 132 % of control
- survivor count (dose: 50.0 mg/kg/injection, schedule: Q01DX005 (ip), vehicle: saline with Tween-80): 6 of 6
- survivor count [2]: 6 of 6
- survivor count [3]: 0 of 6

Structure (SMILES): Nc1ccccc1S(=O)(=O)Nc1c(N)nc(SCC(=O)O)[nH]c1=O
- T/C [4]: 130 % of control
- survivor count [4]: 6 of 6

Structure (SMILES): OC(CN1CCCC2CCCCC21)c1cc2ccccc2c2ccccc12 (stereo not given)
- survivor count (dose: 400.0 mg/kg/injection, schedule: Q01DX009 (ip), vehicle: saline with Tween-80): 6 of 6

Structure (SMILES): O=C(Nc1cccc2c(NC(=O)N3CCCCC3)cccc12)N1CCCCC1
- survivor count (dose: 60.0 mg/kg/injection, schedule: Q01DX005 (ip), vehicle: saline with Tween-80): 6 of 6 (2×)
- survivor count [1]: 6 of 6
